Test results published in article doi:10.1101/725697.
These are yes or no findings as the source states them, for the method shown. In cells and extracts the contact can be indirect. Where a sequence is shown, tags or fusion partners need not be part of it.

Sequences of proteins named here, by UniProt entry; tags and fusion partners are left off.
UniProt P05804: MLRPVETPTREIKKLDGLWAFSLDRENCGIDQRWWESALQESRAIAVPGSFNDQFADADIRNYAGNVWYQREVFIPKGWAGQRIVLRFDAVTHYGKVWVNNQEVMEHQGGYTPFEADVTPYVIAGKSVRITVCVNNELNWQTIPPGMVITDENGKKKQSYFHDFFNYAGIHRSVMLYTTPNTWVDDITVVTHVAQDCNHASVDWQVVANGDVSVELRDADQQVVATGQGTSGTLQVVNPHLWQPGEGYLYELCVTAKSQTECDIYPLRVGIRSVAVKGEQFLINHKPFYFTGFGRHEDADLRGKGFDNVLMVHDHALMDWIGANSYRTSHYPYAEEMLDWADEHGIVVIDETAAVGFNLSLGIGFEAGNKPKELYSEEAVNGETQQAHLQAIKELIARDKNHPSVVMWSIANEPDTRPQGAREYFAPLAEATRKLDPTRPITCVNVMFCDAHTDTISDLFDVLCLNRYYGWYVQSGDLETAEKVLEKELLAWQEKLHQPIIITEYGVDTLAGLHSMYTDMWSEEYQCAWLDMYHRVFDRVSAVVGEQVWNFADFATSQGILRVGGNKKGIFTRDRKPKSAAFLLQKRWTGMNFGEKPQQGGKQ

Target: β-glucuronidase fused to the N-terminus of SCFP3A (pN:GUS) (UniProt P05804)
Test: split reporter

binding: no binding
B1: AtSIZ1 fused to SCFP3A amino acids 156-239 (pC:AtSIZ1) (enzyme, UniProt Q680Q4 1-884)
chain: MDLEANCKEKLSYFRIKELKDVLTQLGLSKQGKKQELVDRILTLLSDEQAARLLSKKNTVAKEAVAKLVDDTYRKMQVSGASDLASKGQVSSDTSNLKVKGEPEDPFQPEIKVRCVCGNSLETDSMIQCEDPRCHVWQHVGCVILPDKPMDGNPPLPESFYCEICRLTRADPFWVTVAHPLSPVRLTATTIPNDGASTMQSVERTFQITRADKDLLAKPEYDVQAWCMLLNDKVLFRMQWPQYADLQVNGVPVRAINRPGGQLLGVNGRDDGPIITSCIRDGVNRISLSGGDVRIFCFGVRLVKRRTLQQVLNLIPEEGKGETFEDALARVRRCIGGGGGDDNADSDSDIEVVADFFGVNLRCPMSGSRIKVAGRFLPCVHMGCFDLDVFVELNQRSRKWQCPICLKNYSVEHVIVDPYFNRITSKMKHCDEEVTEIEVKPDGSWRVKFKRESERRELGELSQWHAPDGSLCPSAVDIKRKMEMLPVKQEGYSDGPAPLKLGIRKNRNGIWEVSKPNTNGLSSSNRQEKVGYQEKNIIPMSSSATGSGRDGDDASVNQDAIGTFDFVANGMELDSISMNVDSGYNFPDRNQSGEGGNNEVIVLSDSDDENDLVITPGPAYSGCQTDGGLTFPLNPPGIINSYNEDPHSIAGGSSGLGLFNDDDEFDTPLWSFPSETPEAPGFQLFRSDADVSGGLVGLHHHSPLNCSPEINGGYTMAPETSMASVPVVPGSTGRSEANDGLVDNPLAFGRDDPSLQIFLPTKPDASAQSGFKNQADMSNGLRSEDWISLRLGDSASGNHGDPATTNGINSSHQMSTREGSMDTTTETASLLLGMNDSRQDKAKKQRSDNPFSFPRQKRSNNEQDHQTRHRSLNKICIILCAGKN
